# In patent publication US20040048350A1 (priority 2001, published 2004):
# By UniProt entry, the sequences of proteins in these tests, tags left out.
# UniProt Q9KWU7, whole entry: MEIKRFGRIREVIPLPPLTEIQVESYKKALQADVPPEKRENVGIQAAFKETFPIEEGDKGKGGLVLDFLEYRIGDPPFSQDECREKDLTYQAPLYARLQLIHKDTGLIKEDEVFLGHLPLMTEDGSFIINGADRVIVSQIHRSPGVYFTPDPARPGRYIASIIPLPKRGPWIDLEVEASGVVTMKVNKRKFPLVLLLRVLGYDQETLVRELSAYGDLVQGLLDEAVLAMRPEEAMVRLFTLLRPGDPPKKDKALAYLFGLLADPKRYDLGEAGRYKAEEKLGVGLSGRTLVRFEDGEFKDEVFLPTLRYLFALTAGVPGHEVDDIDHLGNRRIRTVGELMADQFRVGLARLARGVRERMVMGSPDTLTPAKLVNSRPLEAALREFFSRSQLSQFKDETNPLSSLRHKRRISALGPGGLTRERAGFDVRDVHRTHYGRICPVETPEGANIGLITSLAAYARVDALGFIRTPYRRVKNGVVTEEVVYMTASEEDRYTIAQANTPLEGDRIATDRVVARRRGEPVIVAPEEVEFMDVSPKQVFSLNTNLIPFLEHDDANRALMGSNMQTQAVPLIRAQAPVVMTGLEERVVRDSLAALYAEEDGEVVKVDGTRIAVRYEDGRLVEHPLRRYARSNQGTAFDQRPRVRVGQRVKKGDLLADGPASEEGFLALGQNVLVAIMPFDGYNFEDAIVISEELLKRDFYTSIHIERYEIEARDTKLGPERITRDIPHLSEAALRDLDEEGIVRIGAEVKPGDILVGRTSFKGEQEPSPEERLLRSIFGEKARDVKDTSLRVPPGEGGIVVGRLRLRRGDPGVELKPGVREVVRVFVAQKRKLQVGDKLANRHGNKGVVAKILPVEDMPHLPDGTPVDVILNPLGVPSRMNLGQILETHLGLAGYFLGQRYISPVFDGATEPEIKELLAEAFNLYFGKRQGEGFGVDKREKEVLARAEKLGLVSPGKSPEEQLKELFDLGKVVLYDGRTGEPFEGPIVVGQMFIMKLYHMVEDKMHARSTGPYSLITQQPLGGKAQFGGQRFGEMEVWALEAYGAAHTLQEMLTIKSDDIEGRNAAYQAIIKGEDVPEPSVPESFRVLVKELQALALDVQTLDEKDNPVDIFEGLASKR
# At least one compound was matched to its structure with a doubt left.
# Tests used:
# Taq RNAP holoenzyme = target: T1, Taq RNAP holoenzyme (Thermus aquaticus, UniProt Q9KWU7); assay: Transcription assay, T7A1 promoter template, rifampicin inhibition of Taq RNAP holoenzyme; assay type: biochemical; conditions: ratio of the Ki for Taq RNAP and E. coli RNAP
# T1 construct: Taq core RNAP purified from Taq cells; made in house; host or cells: core: purified natively from Thermus aquaticus cells; σA: recombinant in E. coli
# Text: FIG. 2a depicts autoradiographs showing the radioactive RNA produced by Taq (lanes 1-7) and E. coli (lanes 8-13) RNAP holoenzymes transcribing a template containing the T7 A1 promoter and the tR2 terminator, analyzed on a 15% polyacrylamide gel and quantitated by phosphorimagery. In the absence of rifampicin (lanes 1 and 8), the major RNA products from each RNAP correspond to a trimeric abortive product (CpApU), a 105 nucleotide terminated transcript (Term), and a 127 nucleotide runoff transcript (Run off). Lanes 2-7 and 9-13 show the effects of increasing concentrations of rifampicin. […] Rif-nucleotide compounds (Rif-(CH2)n-Ap) with different linker lengths, n (indicated above each lane) were bound to RNAP, then extended in a specific transcription reaction with α-[^32P]UTP by the RNAP catalytic activity. The products were analyzed on a 23% polyacrylamide gel, visualized by autoradiography, and quantitated by phosphorimagery.
# The transcription assay comparing rifampicin inhibition of E.coli and Taq RNAPs (FIG. 2a) was performed as previously described [Nudler et al., Science 265:793-796 (1994)]. Briefly, 0.1 pmol of purified Taq core RNAP [Zhang et al., Cell 98:811-824 (1999); U.S. Ser. No. 09/396,651, Filed Sep. […] Radioactive RNA products were analyzed on a 15% polyacrylamide sequencing gel.
# Taq core RNAP = target: T2, Taq core RNAP (Thermus aquaticus, UniProt Q9KWU7); assay: Transcription on minimal RNA/DNA scaffold, order of addition, Taq core RNAP; assay type: biochemical; conditions: 200 μM rifampicin, regardless of the order of addition or of the transcript length
# T2 construct: Taq core RNAP purified from Taq cells; made in house; host or cells: purified natively from Thermus aquaticus cells (not recombinant)
structure (smiles),measurement,setting,value
CO[C@H]1/C=C/O[C@@]2(C)Oc3c(C)c(O)c4c(O)c(c(/C=N/N5CCN(C)CC5)c(O)c4c3C2=O)NC(=O)/C(C)=C\C=C\[C@H](C)[C@H](O)[C@@H](C)[C@@H](O)[C@@H](C)[C@H](OC(C)=O)[C@@H]1C [rifampicin],"difference in sensitivity to rifampicin, Taq RNAP versus E. coli RNAP",Taq RNAP holoenzyme,100 fold
same,transcript extension,Taq core RNAP,generalized inhibition of transcript extension
